{"source": "PubChem BioAssay AID1259308 – NCATS | 2017", "aim": "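Knock-downs that increase output of a recombinant reporter protein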 (primary screen)", "system": "human HEK293 embryonic kidney cells stably expressing firefly luciferase (HEK-CMV-Luc2-Hygro)", "reagent": "single siRNA against human genes, 0.8 pmol siRNA per well", "time to read-out": "72 h", "detection": "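Reporter luminescence and viable-cell signal on separate replicate plates, given as percent of non-targeting control and median/MAD z-scores, plus per-cell luciferase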", "scale": "total luciferase, z-score and total luciferase, % of control: higher = more reporter protein produced", "active means": "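Active when the median/MAD z-score for overall luciferase is greater than 3; a gene was taken forward for validation with new siRNAs if at least two of its three siRNAs passed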", "calls": "active = raised luciferase; inactive = no rise", "note": "Here is a random part of about 59,000 deposited reagents. Of all reagents, about 1,510 (2.6%) were called active. 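Calls use total luciferase alone and ignore viability, so some active siRNAs may act by altering cell number.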 Unmarked entries are inactive. The numbers tell different reagents against one gene apart. Not all columns of the deposit are shown. No sequences are given here."}
{"gene": "SPDYE2B (speedy/RINGO cell cycle regulator family member E2B)", "reagent": 1, "total luciferase, z-score": -0.144, "total luciferase, % of control": 79}
{"gene": "SPDYE2B (speedy/RINGO cell cycle regulator family member E2B)", "reagent": 2, "total luciferase, z-score": 0.815, "total luciferase, % of control": 98.1}
{"gene": "SPDYE2B (speedy/RINGO cell cycle regulator family member E2B)", "reagent": 3, "total luciferase, z-score": 0.214, "total luciferase, % of control": 86.1}
{"gene": "NTF3 (neurotrophin 3)", "reagent": 1, "total luciferase, z-score": 1.49, "total luciferase, % of control": 112}
{"gene": "NTF3 (neurotrophin 3)", "reagent": 2, "total luciferase, z-score": 2.21, "total luciferase, % of control": 126}
{"gene": "NTF3 (neurotrophin 3)", "reagent": 3, "total luciferase, z-score": 1.85, "total luciferase, % of control": 119}
{"gene": "KRT28 (keratin 28)", "reagent": 1, "total luciferase, z-score": -0.883, "total luciferase, % of control": 64.3}
{"gene": "KRT28 (keratin 28)", "reagent": 2, "total luciferase, z-score": 0.181, "total luciferase, % of control": 85.5}
{"gene": "KRT28 (keratin 28)", "reagent": 3, "total luciferase, z-score": -0.273, "total luciferase, % of control": 76.5}
{"gene": "FOS (Fos proto-oncogene, AP-1 transcription factor subunit)", "reagent": 1, "total luciferase, z-score": -0.653, "total luciferase, % of control": 68.9}
{"gene": "FOS (Fos proto-oncogene, AP-1 transcription factor subunit)", "reagent": 2, "total luciferase, z-score": 0.0622, "total luciferase, % of control": 83.1}
{"gene": "FOS (Fos proto-oncogene, AP-1 transcription factor subunit)", "reagent": 3, "total luciferase, z-score": 2.95, "total luciferase, % of control": 141}
{"gene": "RNF183 (ring finger protein 183)", "reagent": 1, "total luciferase, z-score": -0.714, "total luciferase, % of control": 67.7}
{"gene": "RNF183 (ring finger protein 183)", "reagent": 2, "total luciferase, z-score": -0.557, "total luciferase, % of control": 70.8}
{"gene": "RNF183 (ring finger protein 183)", "reagent": 3, "total luciferase, z-score": 0.482, "total luciferase, % of control": 91.5}
{"gene": "SPDEF (SAM pointed domain containing ETS transcription factor)", "reagent": 1, "total luciferase, z-score": 1.34, "total luciferase, % of control": 109}
{"gene": "SPDEF (SAM pointed domain containing ETS transcription factor)", "reagent": 2, "total luciferase, z-score": -3.35, "total luciferase, % of control": 15.3}
{"gene": "SPDEF (SAM pointed domain containing ETS transcription factor)", "reagent": 3, "total luciferase, z-score": -0.468, "total luciferase, % of control": 72.6}

Continued, starting with the last 4 of the part before.
{"gene": "RNF183 (ring finger protein 183)", "reagent": 3, "total luciferase, z-score": 0.482, "total luciferase, % of control": 91.5}
{"gene": "SPDEF (SAM pointed domain containing ETS transcription factor)", "reagent": 1, "total luciferase, z-score": 1.34, "total luciferase, % of control": 109}
{"gene": "SPDEF (SAM pointed domain containing ETS transcription factor)", "reagent": 2, "total luciferase, z-score": -3.35, "total luciferase, % of control": 15.3}
{"gene": "SPDEF (SAM pointed domain containing ETS transcription factor)", "reagent": 3, "total luciferase, z-score": -0.468, "total luciferase, % of control": 72.6}
{"gene": "CYCS (cytochrome c, somatic)", "reagent": 1, "total luciferase, z-score": 2.01, "total luciferase, % of control": 122}
{"gene": "CYCS (cytochrome c, somatic)", "reagent": 2, "total luciferase, z-score": 1.88, "total luciferase, % of control": 119}
{"gene": "CYCS (cytochrome c, somatic)", "reagent": 3, "total luciferase, z-score": 0.292, "total luciferase, % of control": 87.7}
{"gene": "EIF4A1 (eukaryotic translation initiation factor 4A1)", "reagent": 1, "total luciferase, z-score": -2.15, "total luciferase, % of control": 39.2}
{"gene": "EIF4A1 (eukaryotic translation initiation factor 4A1)", "reagent": 2, "total luciferase, z-score": -1.95, "total luciferase, % of control": 43.1}
{"gene": "EIF4A1 (eukaryotic translation initiation factor 4A1)", "reagent": 3, "total luciferase, z-score": -0.809, "total luciferase, % of control": 65.8}
{"gene": "TAS1R2 (taste 1 receptor member 2)", "reagent": 1, "total luciferase, z-score": 0.793, "total luciferase, % of control": 97.7}
{"gene": "TAS1R2 (taste 1 receptor member 2)", "reagent": 2, "total luciferase, z-score": 0.893, "total luciferase, % of control": 99.7}
{"gene": "TAS1R2 (taste 1 receptor member 2)", "reagent": 3, "total luciferase, z-score": 0.875, "total luciferase, % of control": 99.3}
{"gene": "OR5K4 (olfactory receptor family 5 subfamily K member 4)", "reagent": 1, "total luciferase, z-score": -1.94, "total luciferase, % of control": 43.3}
{"gene": "OR5K4 (olfactory receptor family 5 subfamily K member 4)", "reagent": 2, "total luciferase, z-score": 1.56, "total luciferase, % of control": 113}
{"gene": "OR5K4 (olfactory receptor family 5 subfamily K member 4)", "reagent": 3, "total luciferase, z-score": -1.48, "total luciferase, % of control": 52.4}
{"gene": "EPC2 (enhancer of polycomb 2)", "reagent": 1, "total luciferase, z-score": 0.00167, "total luciferase, % of control": 81.9}
{"gene": "EPC2 (enhancer of polycomb 2)", "reagent": 2, "total luciferase, z-score": 0.444, "total luciferase, % of control": 90.7}
{"gene": "EPC2 (enhancer of polycomb 2)", "reagent": 3, "total luciferase, z-score": 0.325, "total luciferase, % of control": 88.3}
